Test results: paper PMC13217735
No constants are given. Whether binding was seen depends on the method and setting. Binding seen in cells or lysates may run through a third protein. Some binding calls cover weakened binding; strength is not graded here.

The chains behind the UniProt entries cited, without tags or fusion partners.
UniProt O15169: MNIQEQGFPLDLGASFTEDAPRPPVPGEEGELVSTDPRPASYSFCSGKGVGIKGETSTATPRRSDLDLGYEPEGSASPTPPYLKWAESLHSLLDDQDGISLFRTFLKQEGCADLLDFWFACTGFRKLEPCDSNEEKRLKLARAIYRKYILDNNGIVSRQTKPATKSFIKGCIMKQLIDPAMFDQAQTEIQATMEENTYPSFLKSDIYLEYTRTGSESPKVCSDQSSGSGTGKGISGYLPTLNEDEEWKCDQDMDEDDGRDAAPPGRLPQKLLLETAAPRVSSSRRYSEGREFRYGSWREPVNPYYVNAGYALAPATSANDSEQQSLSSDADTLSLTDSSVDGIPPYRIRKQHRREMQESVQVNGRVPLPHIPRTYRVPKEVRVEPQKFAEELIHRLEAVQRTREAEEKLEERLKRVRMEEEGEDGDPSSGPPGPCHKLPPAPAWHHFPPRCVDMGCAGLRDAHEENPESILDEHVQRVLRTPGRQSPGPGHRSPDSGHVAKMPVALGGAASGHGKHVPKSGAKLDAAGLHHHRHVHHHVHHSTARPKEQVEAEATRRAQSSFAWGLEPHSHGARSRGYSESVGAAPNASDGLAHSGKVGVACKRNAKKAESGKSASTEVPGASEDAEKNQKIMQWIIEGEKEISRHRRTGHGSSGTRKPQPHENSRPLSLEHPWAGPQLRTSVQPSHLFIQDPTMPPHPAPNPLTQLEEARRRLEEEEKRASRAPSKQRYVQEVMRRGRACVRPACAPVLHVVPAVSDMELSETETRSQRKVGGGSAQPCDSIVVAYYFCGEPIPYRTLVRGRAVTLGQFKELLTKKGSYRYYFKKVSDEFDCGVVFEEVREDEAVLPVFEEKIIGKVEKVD
UniProt P35222: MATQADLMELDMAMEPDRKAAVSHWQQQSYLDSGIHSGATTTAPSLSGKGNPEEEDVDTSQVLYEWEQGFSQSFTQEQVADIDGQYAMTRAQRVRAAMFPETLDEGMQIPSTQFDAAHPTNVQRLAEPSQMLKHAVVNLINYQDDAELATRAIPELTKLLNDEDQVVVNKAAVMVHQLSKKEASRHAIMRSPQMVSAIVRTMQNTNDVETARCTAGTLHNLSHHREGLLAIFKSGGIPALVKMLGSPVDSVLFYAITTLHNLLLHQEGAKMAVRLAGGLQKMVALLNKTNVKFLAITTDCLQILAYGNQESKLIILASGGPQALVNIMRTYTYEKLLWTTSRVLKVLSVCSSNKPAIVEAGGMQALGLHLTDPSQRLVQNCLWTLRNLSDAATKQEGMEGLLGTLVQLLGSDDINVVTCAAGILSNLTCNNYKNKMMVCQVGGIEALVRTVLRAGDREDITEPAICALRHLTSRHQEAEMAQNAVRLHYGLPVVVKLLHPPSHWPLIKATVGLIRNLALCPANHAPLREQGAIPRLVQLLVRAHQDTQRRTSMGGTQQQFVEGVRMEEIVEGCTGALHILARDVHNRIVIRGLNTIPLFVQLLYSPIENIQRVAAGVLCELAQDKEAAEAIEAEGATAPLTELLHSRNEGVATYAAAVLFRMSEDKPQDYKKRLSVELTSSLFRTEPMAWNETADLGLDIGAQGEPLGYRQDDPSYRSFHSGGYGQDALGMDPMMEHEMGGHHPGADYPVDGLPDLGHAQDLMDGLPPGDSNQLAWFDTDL

Target: AXIN1 (human (endogenous in HCT116)) (UniProt O15169)
Assay: co-IP; HCT116 lysate (20 mM Tris-HCl, 130 mM NaCl, 10% glycerol, 2 mM EDTA, 1% Triton X-100); AXIN1 or GSK3B antibody on Dynabeads Protein G overnight at 4 °C, six washes with PBS 0.01% Tween-20, immunoblot; cells treated with MEK1/2 or GSK3 inhibitor or DMSO

binding: binds
Substance: beta-catenin (from UniProt P35222 1-781)
